From patent US20210277119A1
No constants are given. Whether binding was seen depends on the method and setting. Some binding calls cover weakened binding; strength is not graded here.

Molecular target: recombinant protein TCRVB 6-5 (human)
Test: SPR, TCRVB 6-5 on Biotin CAP chip

B1: A-H.53 (scFv)
scFv: QVQLVQSGAEVKKPGSSVKVSCKASGYSFRLTYIHWVRQAPGQGLEWMGWFFPGSGNIKYNEKFKGRVTITADTSTSTAYMELSSLRSEDTAVYYCAGSYYSYDVLDYWGQGTTVTVSSGGGGSGGGGSGGGGSGGGGSDIQMTQSPSFLSASVGDRVTITCKASQNVGINVVWHQQKPGKAPKALIYSSSHRYSGVPSRFSGSGSGTEFTLTISSLQPEDFATYFCQQFKSYPLTFGQGTKLEIK
binding: binds
